Data reported in PMC3203111.
No constants are given. Whether binding was seen depends on the method and setting. Binding calls can cover weak binding; strength is not graded here. For part of these data: In cells and extracts the contact can be indirect.

Chains of the proteins cited; added tags and fusions are not shown. Lines headed by an entry give the natural chain unless they say otherwise; changes in a name come on top. Residues count along the entry.
UniProt O00206, residues 24-839: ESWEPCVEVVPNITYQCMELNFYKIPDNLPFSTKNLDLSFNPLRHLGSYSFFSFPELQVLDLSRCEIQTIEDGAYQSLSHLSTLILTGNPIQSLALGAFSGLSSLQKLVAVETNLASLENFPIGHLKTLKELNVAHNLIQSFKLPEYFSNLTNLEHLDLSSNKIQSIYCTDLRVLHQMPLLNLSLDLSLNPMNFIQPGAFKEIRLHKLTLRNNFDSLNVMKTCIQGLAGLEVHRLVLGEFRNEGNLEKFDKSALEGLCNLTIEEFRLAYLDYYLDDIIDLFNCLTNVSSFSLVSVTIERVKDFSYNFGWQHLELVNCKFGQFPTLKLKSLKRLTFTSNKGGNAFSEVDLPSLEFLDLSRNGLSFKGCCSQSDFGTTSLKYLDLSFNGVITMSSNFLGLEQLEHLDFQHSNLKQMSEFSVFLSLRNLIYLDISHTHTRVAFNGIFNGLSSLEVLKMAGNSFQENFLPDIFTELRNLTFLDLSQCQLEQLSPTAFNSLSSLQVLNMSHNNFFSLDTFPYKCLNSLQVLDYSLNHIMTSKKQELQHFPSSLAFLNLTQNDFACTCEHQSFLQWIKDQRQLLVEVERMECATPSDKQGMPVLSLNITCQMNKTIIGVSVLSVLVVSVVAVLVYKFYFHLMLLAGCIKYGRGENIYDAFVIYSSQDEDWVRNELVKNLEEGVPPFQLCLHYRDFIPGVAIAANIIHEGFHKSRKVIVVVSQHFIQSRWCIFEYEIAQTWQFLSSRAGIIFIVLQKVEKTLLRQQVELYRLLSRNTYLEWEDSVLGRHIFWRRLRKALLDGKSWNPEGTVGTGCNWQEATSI
UniProt P0A0U8: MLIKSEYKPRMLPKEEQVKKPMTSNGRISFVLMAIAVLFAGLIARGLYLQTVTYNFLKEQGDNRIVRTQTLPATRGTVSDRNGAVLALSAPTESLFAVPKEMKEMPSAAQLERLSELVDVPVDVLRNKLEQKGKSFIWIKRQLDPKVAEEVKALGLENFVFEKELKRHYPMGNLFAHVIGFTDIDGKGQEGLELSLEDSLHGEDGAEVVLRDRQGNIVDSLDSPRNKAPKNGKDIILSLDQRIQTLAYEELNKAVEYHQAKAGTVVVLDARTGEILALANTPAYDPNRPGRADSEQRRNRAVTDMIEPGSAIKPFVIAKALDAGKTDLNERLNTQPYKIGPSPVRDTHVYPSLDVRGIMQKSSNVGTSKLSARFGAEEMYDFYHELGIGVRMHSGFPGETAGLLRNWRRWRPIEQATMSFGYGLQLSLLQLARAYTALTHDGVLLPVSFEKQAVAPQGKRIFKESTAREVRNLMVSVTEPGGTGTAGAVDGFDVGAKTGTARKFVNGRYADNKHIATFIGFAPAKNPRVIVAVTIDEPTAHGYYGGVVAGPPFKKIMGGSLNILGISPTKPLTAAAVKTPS

Experiments:
[1] = target: human TLR4 (Toll-like receptor 4), naturally expressed by Hec-1-B epithelial cells (human) (UniProt O00206); test: co-IP; Hec-1-B cells treated with 10 µg of purified His6-tagged protein, lysed (1% Triton X-100, 0.5% NP-40, 100 mM NaCl, pH 7.5); 500 µg soluble proteins precipitated with 5 µg anti-hTLR4 mAb (clone 1G11) and protein A-agarose at 4°C; immunoblot with anti-His tag polyclonal antibody; only the binder purified
[2] = target: human TLR4 (Toll-like receptor 4), naturally expressed by Hec-1-B epithelial cells (human) (UniProt O00206); test: ELISA; cellular ELISA: Hec-1-B cells in 24 well plates treated 1 h at 37°C with increasing amounts of purified His-tagged PBP2, with anti-TLR4 blocking antibody (clone HTA125) or irrelevant normal mouse IgG (10 µg); washed, fixed; bound PBP2 detected with anti-His-tag polyclonal antibody and HRPO conjugate, read at 492 nm; only the binder purified
[3] = target: His6-tagged PBP2 (penicillin-binding protein 2) from Neisseria meningitidis (Neisseria meningitidis) (UniProt P0A0U8); test: co-IP; Hec-1-B cells treated with 10 µg of purified His6-tagged protein, lysed (1% Triton X-100, 0.5% NP-40, 100 mM NaCl, pH 7.5); 500 µg soluble proteins precipitated with 5 µg anti-HisTag rabbit polyclonal antibody and protein A-agarose at 4°C; immunoblot with anti-TLR4 mAb; only the target purified

Substance | binding [1] | binding [2] | binding [3]
His6-tagged PBP2 (penicillin-binding protein 2) from Neisseria meningitidis (from UniProt P0A0U8) | binds | binds | 
human TLR4 (Toll-like receptor 4), naturally expressed by Hec-1-B epithelial cells (from UniProt O00206 24-839) |  |  | binds
